The campaign covered roughly 230,000 compounds. About 310 (0.13%) were called active. Inconclusive results, whose numbers are uncertain, are shown with a selection of clear calls. Calls follow the shape of the dose curve; as a rule, active = well fitted activation curve with a large enough effect; inconclusive = small, poorly fitted or top-dose-only effect; inactive = no such curve, though single readings can be large or run the other way. Where the call is inconclusive, the potency comes from a doubtful curve fit.
Test: qHTS Multiplex Assay to Identify Dual Action Probes in a Cell Model of Huntington: Cytoprotection (ATP); also: nearly all actives have a fitted effect of over 45% in size;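 as to cytoprotection (ATP increase): toxic huntingtin expression switched on by the ecdysone agonist tebufenozide; % of control where 0% means no effect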
Conditions: PC12 HTT-Q103 induced, ATP luminescence, 40 h; cytoprotection (ATP increase): at 56.4 µM (top of the series) unless noted
Procedure, shortened: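 ATP quantification (ATPlite) reports survival of PC12 cells in which tebufenozide, 100 nM final, switches on Htt exon 1 with 103 glutamines linked to GFP; compounds are titrated.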
For `N#CC1=C(N)C(C#N)(C#N)C(c2cccnc2)C2CC(c3ccccc3)CC=C12` (stereo not given), the Potency was inconclusive: 35500 nM [activator, single point].
In the case of `COCCN(C(=S)Nc1cc(C)cc(C)c1)C(C)c1ccco1` (stereo not given), the Potency is reported as inconclusive: 35500 nM [activator, single point].
In the case of `O=C(NNC(=O)c1cc(-c2ccc(Cl)c(Cl)c2)nc2ccccc12)Nc1ccccc1`, the Potency is reported as “inactive”.
For `O=[N+]([O-])c1ccc(NC(=S)NCCc2ccccc2)cc1`, the Potency was inconclusive: 708 nM [activator, partial curve].
With `Cc1c(C(C)C)c(=O)n(-c2ccccc2)n1C` the Potency was inconclusive: 5620 nM [activator, full curve, poor fit].
For `Cc1sc(N)c(C#N)c1C`, the Potency was inconclusive: 89.1 nM [activator, full curve, poor fit].
With `COc1ccc(OC)c(-n2c(SC)nnc2-c2c[nH]c3ccccc23)c1` the Potency was “inactive”.
For `O=C(O)CNC(=O)CC1S/C(=N/N=C/c2ccccc2O)NC1=O` (stereo not given), the Potency was inconclusive: 17800 nM [activator, single point].
With `CC(=O)n1cc(N(C(=O)CCl)c2ccc(C)cc2)c2ccccc21` the cytoprotection (ATP increase) was inactive: -3.83% [at 10 µM].
For `Cc1cccc(C)c1NC(=O)C1(N2C(=O)CC2c2ccccc2)CCCCC1` (stereo not given), the Potency was inconclusive: 794 nM [activator, partial curve].
With `CC1CCCC(C)N1NC(=O)c1cccc(S(=O)(=O)N2CCc3ccccc32)c1` (stereo not given) the Potency was inconclusive: 1120 nM [activator, single point].
With `COc1ccc(COC(=O)N/N=C2/C[C@@H](O)[C@@H](O)[C@@H]3[C@@H]4C(=O)N(C[C@@H]5CCCO5)C(=O)[C@H]4CC[C@H]23)cc1` the cytoprotection (ATP increase) was inactive: -2.47% [at 10 µM].
In the case of `Brc1c(CSc2nncc3ccccc23)nc2ccccn12`, the Potency is reported as inconclusive: 5620 nM [activator, single point].
For `COC(=O)CCCC[C@@H]1SC[C@@H]2NC(=O)N[C@@H]21`, the Potency was inconclusive: 89.1 nM [activator, partial curve, poor fit].
For `O=C(O)CCc1nc(-c2ccccc2)c(-c2ccccc2)o1`, the Potency was inconclusive: 35500 nM [activator, single point].
In the case of `COc1ccc(-c2cn(-c3ccc(Cl)cc3)c3[n+]2CCCCC3)cc1`, the cytoprotection (ATP increase) is reported as inactive: -10.8% [at 10 µM].
With `CC1Nc2ccccc2C(=O)N1NS(C)(=O)=O` (stereo not given) the Potency was inconclusive: 708 nM [activator, single point].
For `OCCN1CC(O)C(O)C(O)C1CO` (stereo not given), the Potency was inconclusive: 35500 nM [activator, single point].
For `Cc1cnc(CNc2ccnc(-c3cccnc3)n2)cn1`, the Potency was “inactive”.
With `COc1cc(OC)cc(C(=O)NCCCN2CCN(CCCNC(=O)c3cc(OC)cc(OC)c3)CC2)c1` the Potency was inconclusive: 2820 nM [activator, single point].
With `O=C1C[C@@H](O)[C@@H](O)[C@@H]2[C@H]3C(=O)N(c4ccc(F)cc4F)C(=O)[C@@H]3CC[C@@H]12` the Potency was inconclusive: 0.8 nM [activator, full curve, poor fit].
In the case of `COc1ccc(OC)c2sc(NC(=O)C3=COCCO3)nc12`, the Potency is reported as inconclusive: 708 nM [activator, single point].
With `O=C1CCCC2=C1C(c1ccncc1)Nc1ccccc1N2` (stereo not given) the Potency was inconclusive: 1000 nM [activator, full curve].
For `N#CCCN(CCC#N)C(=O)c1ccc2c(c1)OCO2`, the Potency was “inactive”.
In the case of `Cc1cc(Nc2ccccc2)nc(-c2ccccc2O)n1`, the cytoprotection (ATP increase) is reported as inactive: -11.2% [at 0.074 µM].
For `CCOC(=O)C1=C(O)/C(=C/c2cc(OC)c(OC)c(OC)c2)SC1=Nc1ccc(OC)cc1`, the Potency was inconclusive: 5010 nM [activator, single point].
With `CC(=O)Nc1nc(SCc2ccc(Cl)cc2Cl)n[nH]1` the Potency was inconclusive: 112 nM [activator, full curve].
In the case of `C/C=C(\C)C(=O)OC1C(OC(=O)C2(C)OC2C)c2cc3ccc(=O)oc3cc2OC1(C)C` (stereo not given), the Potency is reported as inconclusive: 5010 nM [activator, full curve, poor fit].
With `CCOC(=O)CSc1nc(-c2ccccc2)nc2c1oc1ccccc12` the Potency was inconclusive: 35500 nM [activator, single point].
With `CC(=O)Nc1ccc(NC(=O)COc2ccc(S(=O)(=O)NC(C)c3ccccc3)cc2)cc1` (stereo not given) the Potency was inconclusive: 794 nM [activator, partial curve].
For `c1ccc(CC2=NCCN2)cc1`, the Potency was inconclusive: 20000 nM [activator, single point].
In the case of `CC1CCN(C(C(=O)Nc2ccc(C(C)C)cc2)c2ccc3c(c2)OCO3)CC1` (stereo not given), the Potency is reported as “inactive”.
For `CCn1cc(CNC(=O)c2cc(COc3ccc(F)cc3Cl)on2)cn1`, the Potency was inconclusive: 5620 nM [activator, single point].
In the case of `C/C(=N\Nc1ccc(F)cc1F)c1ccc(Br)s1`, the Potency is reported as inconclusive: 447 nM [activator, full curve].
With `CNC(=S)N1C2CCC1CC(NC(=O)NC13CC4CC(CC(C4)C1)C3)C2` (stereo not given) the Potency was inconclusive: 398 nM [activator, partial curve].
In the case of `Cc1cc2c(cc1C)CSC(c1ccccc1O)SC2`, the Potency is reported as “inactive”.
In the case of `COc1cccc(NC(=O)CSc2nc3c(c(-c4ccco4)c2C#N)CCCC3)c1`, the Potency is reported as inconclusive: 1120 nM [activator, single point].
With `N#CCC(=O)Nc1ccc(C(=O)OCC(=O)N(Cc2ccccc2)C2CCS(=O)(=O)C2)cc1` (stereo not given) the Potency was inconclusive: 2820 nM [activator, single point].
For `Cc1cccc(NC(=O)NNC(=O)c2sccc2-n2cccc2)c1`, the Potency was “inactive”.
In the case of `Cc1ccc(-n2nc(CC#N)c(C#N)c2N)cc1Cl`, the Potency is reported as inconclusive: 1260 nM [activator, single point].
In the case of `O=C(Cc1ccc(Cl)cc1)Nc1ncccn1`, the Potency is reported as inconclusive: 5620 nM [activator, single point].
For `CCOc1cc2[nH]c(=S)n(CCc3ccc(OC)c(OC)c3)c(=O)c2cc1OCC`, the Potency was inconclusive: 3550 nM [activator, single point].
With `CCOC(=O)N1CC=C2C(C#N)=C(N)C(C#N)(C#N)[C@H](c3ccc(OCC)c(OCC)c3)[C@H]2C1` the Potency was “inactive”.
With `COc1cc(-c2nc3ccccn3c2/N=C/c2cccc(OC)c2O)ccc1O` the Potency was inconclusive: 12600 nM [activator, single point].
With `CCOC(=O)C1CCN(C(=O)Cc2ccccc2OC)CC1` the Potency was inconclusive: 35500 nM [activator, single point].
With `CCOC(=O)c1c(C)oc2c1c(C=NCc1ccccn1)c(O)c1ccccc12` the cytoprotection (ATP increase) was inactive: -1.83% [at 10 µM].
With `C=C(C)CSC1=C(C#N)C(c2ccsc2)CC(=O)N1` (stereo not given) the Potency was “inactive”.
With `O=C(N=C1c2ccccc2CN1c1cccc(Cl)c1)c1cccnc1` the Potency was inconclusive: 891 nM [activator, single point].
With `CC(C(=O)O)c1ccc(CC2CCCC2=O)cc1` (stereo not given) the Potency was inconclusive: 794 nM [activator, full curve, poor fit].
For `CCOC(=O)CC(CC(C)=O)C(=O)OCC` (stereo not given), the Potency was inconclusive: 2820 nM [activator, single point].
For `COc1ccc(OC)c(-c2cc(C(=O)NCc3cccs3)no2)c1`, the Potency was inconclusive: 5620 nM [activator, single point].
In the case of `CC1(C)Cc2ccccc2-c2nnc(SCC(=O)Nc3nc4ccccc4s3)n21`, the Potency is reported as inconclusive: 3160 nM [activator, single point].
In the case of `O=C(O)c1cccc(NCc2cccnc2)c1`, the cytoprotection (ATP increase) is reported as inactive: 11.1% [at 10 µM].
In the case of `Cc1c(NC(=O)/C(C#N)=C/c2ccc(-c3ccccc3Cl)o2)c(=O)n(-c2ccccc2)n1C`, the Potency is reported as inconclusive: 6310 nM [activator, partial curve].
In the case of `CC1CCC2C(=O)OC(Cc3ccccc3)CN2C1c1ccc(Br)cc1` (stereo not given), the Potency is reported as inconclusive: 398 nM [activator, partial curve].
For `COc1ccc(CNC2C[C@H]3CCCC(=O)N4CC[C@@H](C2)[C@@H]34)cc1` (stereo not given in full), the Potency was inconclusive: 11200 nM [activator, partial curve].
In the case of `CCOc1ccc(NC(=O)CS(=O)(=O)c2cn(C)c3ccccc23)cc1`, the Potency is reported as inconclusive: 5620 nM [activator, single point].
With `CN(C)CCOc1ccc(/C(=C(/CCCl)c2ccccc2)c2ccccc2)cc1` the Potency was inconclusive: 1260 nM [activator, full curve, poor fit].
With `Cc1ccc(Cl)c(Nc2ccccc2C(=O)O)c1Cl` the Potency was inconclusive: 316 nM [activator, partial curve, poor fit].
In the case of `CC(C)[C@@H](CC(=O)N[C@@H]1CCCC[C@H]1C(=O)N[C@H](CC(=O)N[C@@H](CCC(=O)O)CC(=O)O)Cc1ccccc1)NC(=O)C[C@H](Cc1c[nH]c2ccccc12)NC(=O)[C@@H]1CCCC[C@H]1N`, the Potency is reported as inconclusive: 35500 nM [activator, single point].
With `COC(=O)C1=C(C)NC(C)=C(C(=O)OCCCN2CCC(c3ccccc3)(c3ccccc3)CC2)[C@H]1c1cccc([N+](=O)[O-])c1` the Potency was inconclusive: 89.1 nM [activator, partial curve, poor fit].
In the case of `Oc1c(Br)cc(Br)cc1C=NCc1ccc(F)cc1`, the Potency is reported as “inactive”.
With `O=C(NCc1ccc(Cl)cc1)c1cc(=O)nc2sc(-c3ccccc3)nn12` the Potency was inconclusive: 1260 nM [activator, single point].
With `N=C1CCCN1c1ccccc1O` the Potency was inconclusive: 5620 nM [activator, single point].
For `Cc1sc(/N=C/c2ccccc2O)c(C#N)c1C`, the Potency was inconclusive: 1000 nM [activator, single point].

Source: PubChem BioAssay AID1471 (National Center for Advancing Translational Sciences (NCATS), 2008)
Potency is read from the fitted curve at half-maximal effect.
